Results reported in patent publication US20240252583A1 (priority 2021, published 2024).

Assay: peptide made by a vendor (peptide synthesis; 2-Chlorotrityl chloride resin)
Conditions: whole synthesis, HPLC, amino acid analysis, mass spectroscopy, acetate salt

PEPTIDE1{[dT].[dT].[dN].[dY].[dT]}$$$$V2.0
final purity (method not given): 98.8%

Strings that start with PEPTIDE1 are HELM notation: dots part the residues, brackets hold end groups and non-standard residues.
